Reference: paper PMC4554924
These are yes or no findings as the source states them, for the method shown. Some results given as binding are weak or reduced against the parent protein; the word gives no strength.

T1: Atg12 (Dictyostelium discoideum) (UniProt Q86CR6)
T1 sequence: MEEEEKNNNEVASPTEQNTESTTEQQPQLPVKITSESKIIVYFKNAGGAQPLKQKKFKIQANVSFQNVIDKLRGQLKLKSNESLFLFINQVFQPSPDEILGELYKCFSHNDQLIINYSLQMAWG

T2: Atg8 (DDB_G0286191) (Dictyostelium discoideum) (UniProt Q86CR8)
T2 sequence: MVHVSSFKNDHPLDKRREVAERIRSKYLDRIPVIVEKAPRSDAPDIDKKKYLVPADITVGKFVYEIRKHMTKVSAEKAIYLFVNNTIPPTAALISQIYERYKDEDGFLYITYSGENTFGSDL


How the values were obtained:
[1] = molecular target: T1, Atg12 (Dictyostelium discoideum); assay: two-hybrid; pairwise analysis: atg genes in pACT2 and pLexA(1-202)+PL, S. cerevisiae TAT7
[2] = molecular target: T2, Atg8 (DDB_G0286191) (Dictyostelium discoideum); assay: as above
[3] = molecular target: T2, Atg8 (DDB_G0286191) (Dictyostelium discoideum); assay: two-hybrid; library screen: LexA fusion bait in pLexA(U) against a D. discoideum cDNA library in pAD-GAL4-2.1, S. cerevisiae TAT7; His+ transformants with 5 mM 3-aminotriazole, then beta-galactosidase filter assay; interactions recapitulated in a fresh yeast strain with bait and prey plasmids
[4] = molecular target: putative Atg17 (DDB_G0295673) (Dictyostelium discoideum) (UniProt B0G140); assay: two-hybrid; pairwise analysis: atg genes in pACT2 and pLexA(1-202)+PL, S. cerevisiae TAT7

Row | binding [3] | Binder | further results
1 | – | Atg7 (pairwise two-hybrid construct) (protein, UniProt Q86CR9 1-707) MTNTLQFKEFSSFVNISFWHELSNKKLDELKLSEESIPLNGHYTFSPSQQLDPFLCLEFNAFLRNNVTNSTENQYVLPPRSYLSHGTLYNYNTVDDFKQSPKIKLFNDASKRIWNDINNGNIDKDTSLLNRFILLTYADIKNHQFYYMFGIPALLPSQPIQQFTEKPESINIESLKSFSNQILPQYFCLKQQQQESSTTTTTSFELIGSIEEKGNQYLNECLENDLIPLVGFCDPCSLPLNPGWPLRNFLIYLSIKYPMLKKIKVLCYRGNGSTSNSILLSLELPSMGEQLIKKQQEEDAGEWSGKSVGWEKDSNGKIAPRFVSLASTMDPLKLAEQSVDLNLKLMRWRVMPSLELEKIKTTSCLLLGSGTLGCNVARSLMSWGVRNITFVDSSKVSYSNPVRQSLFTFADCSPKAKEKSIAAADALKKIFPAINANAHVFSIPMPGHSVPQSEYQSIRNTIELLENLIKQHDVIYLLTDSRESRWLPTMLSRAHGKLCINAALGFDSYLVIRHGIKDQCQNELNPSISSKLGYQGSDLGCYFCNDVIAPTDTLKDRTLDQMCTVTRPGLSMMASSIAVELLISTIHHPYGGRAKGETETDVYVQGSTPLGIIPHQLRGFISHYQTLPLFSNPYKHCTACSDYIIDEYNSKGFDFIINVMNDSSCLTKICGIDDLKNTEVNIDWDIDISDDDDDNNNNNNKEKNDDF | binding [1]: binds; binding [2]: binds
2 | binds | CrtA, calreticulin DDB_G0283539, library clone 176-424 (domain or fragment, UniProt Q23858 176-424) ISPDNTYKVLVDNKEIQAGNLADDWELLPSKQIKDPKQSKPVDWVDVKEIDDPEDVKPAGHDDIPASIVDPEAVKPEDWNEEDDGEWEAPTIANPEYKGEWKAKKIPNPEYKGEWVHPLIDNPEYAEDNELYLFNDLGAIGFELWQVKSGSIFNNMIVTDSVEEAKDFSEKTFVANQEAEKKMFDDLEAAKAEERKKADEKLAAEKAAEKEAEEADEEEEEVAEEDLVKTDDKKEEVKKSTKKVDHDEL | –
3 | binds | CnrK, cell number regulator DDB_G0292120, library clone 772-1214 (domain or fragment, UniProt Q54DM8 772-1214) EISNLLNKSIPSDQVEYDPKKIRLFNLYGGQIKSSSDIINNEPIFITTSIHEQFIEPQIPTLTLEEIEEAQKQIELENKNNVKILVDQKEKVFTQLKPKNKRMNDTLKLRENLENQLKLQEKLKIDQENLGNPNVQLFTDEIRDQYFYYRTTLLDSDNDDSDEYYYYDDSDEYEQYNAKDLIDHPTSNDTTTVTTTTATTTTTATEESIIIDGEDEFVNIDSNSSSSEFEDGDEDLLEIKRLQEIDDQVLEKENQLIVQEQKQIDLVFKVLEMYQDEKFGLDFDKVFSVCSDSKNLSQAIKKMTNYLDENYYSNQYGITQTYLLIKERLSFTFPNLSLTVIDRAIKESKYNHDKAKSWIYNKFQKQQKKKFNQLSKNNQQQQQQQQQPQSQQQPQLQTRKINTSEQFEIESEDDDSYDIDEAENYLTEKIYNDKVSKFHHKMD | –
4 | – | putative Atg17 (DDB_G0295673) (protein, UniProt B0G140 1-488) MDFSSKSLELCKSHSNQTDQLLKISKQTYEKYDNSLSKLHLIIRELNKQLIILKETSTQFNDRYNTFINDFTSLSNQKQSLFTSIENKLEILKKKYLDKGLVFKNNNNNNNNNNNNNNNNNNNSNKSTEDDNNENNNNNDVNKNNNNNNNNNLNTLYDFIDIESLELIKNQFLSELSGLNEICDKSKQIYKSTNESNLEMENRFLEIQKQYNKQIEESNSLSDLLTQQNNLYKTIQNQLINVASQCDFITFYKPSPSPLSPSPSPSSSSSSSSPSPSSPQQQHDFNINNKKEQIQLLLTSSLENIQLMSKNVKDIENQFKESCSIYTLVYLLNEKLSFGNDFSENWETFERFNCIFEQRLAGANYFIGELYSLGKWYDLFDESYDNLLEEVKRRQKEYLRQKTIAEQFNEELKHNYNQEIQNRLKFYDSYGKYLPVSLFSTISDQPISFQVKQIIEESVIDYSFNPLNLKRSSPINQQQQQQQPPPNS | binding [4]: binds
5 | binds | Dnpep, aspartyl aminopeptidase DDB_G0286149, library clone 1-484 (protein, UniProt Q54M70 1-484) MEQYLPQAKEFISFIDKSPSPYHAVQYFSEILKSKGFIHLSEKQMWDIQPNKKYFFTRNQSCISAFAVGGKYKPGNGFNIAAAHTDSPNFKVRPVSKVESVGYQQVGVETYGGGLWYTWFDRDLTVAGRVIVKSGDGSYESKLVHIKKPILRIPSLAIHLDRSVNTDGFKYNTQNHLVPMIASKLSEPVESKSTTTTTTTESPKTSDPQDVNSSTTKHHAVLLELLSKELGCSVGDIQNFDLSVCDTQPAAIGGALDEFIFSPRCDNLGMSYCAMIGLLNVKESTLAQEENVLNVILFDNEEVGSSSPQGACAPLINDTISRVNSSMFASTCKPHELNNFIDLTLRNSFLISADMAHAIHPNYTANHEPLHRPALNKGPVIKYNANLRYASNGPTSFVILDICKKNGIPIQEFLVKNDSPCGSTIGPIISGTYGIRTVDIGNPQLSMHSIRETCGVADITHGINLIQKYFEQFTKLDIIKSDLE | –
6 | binds | Atg7 DDB_G0271096, library clone 301-707 (domain or fragment, UniProt Q86CR9 301-707) GEWSGKSVGWEKDSNGKIAPRFVSLASTMDPLKLAEQSVDLNLKLMRWRVMPSLELEKIKTTSCLLLGSGTLGCNVARSLMSWGVRNITFVDSSKVSYSNPVRQSLFTFADCSPKAKEKSIAAADALKKIFPAINANAHVFSIPMPGHSVPQSEYQSIRNTIELLENLIKQHDVIYLLTDSRESRWLPTMLSRAHGKLCINAALGFDSYLVIRHGIKDQCQNELNPSISSKLGYQGSDLGCYFCNDVIAPTDTLKDRTLDQMCTVTRPGLSMMASSIAVELLISTIHHPYGGRAKGETETDVYVQGSTPLGIIPHQLRGFISHYQTLPLFSNPYKHCTACSDYIIDEYNSKGFDFIINVMNDSSCLTKICGIDDLKNTEVNIDWDIDISDDDDDNNNNNNKEKNDDF | –
